Source: the supplement of paper PMC4604168 (melanoma cell lines)
Some of the results follow. Many values rest on one well or one pass, so single values are uncertain.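 Imaging used 1,536-well plates; nuclei positive for cleaved PARP by antibody were divided by total DNA-stained nuclei to yield the apoptosis fraction. Doses for screening kept most cells viable, and cell lines differ markedly in resting and induced cleaved-PARP levels.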

Assays:
Assay in all cases: cleaved PARP positive nuclei fraction relative to DMSO control; melanoma cells; higher = more apoptosis
Details in all cases: library dose: low library concentration; 72 h
501Mel = system: 501Mel
A101D = system: A101D
A2058 = system: A2058
A375 = system: A375
C32 = system: C32
CBRC008 = system: CBRC008 (line from a melanoma biopsy)
CBRC013 = system: CBRC013 (line from a melanoma biopsy)
CBRC014 = system: CBRC014 (line from a melanoma biopsy)
CBRC016 = system: CBRC016 (line from a melanoma biopsy)
CBRC017 = system: CBRC017 (line from a melanoma biopsy)
COLO792 = system: COLO792
COLO800 = system: COLO800
COLO829 = system: COLO829
G361 = system: G361
IPC-298 = system: IPC-298
IST-MEL1 = system: IST-MEL1
LB2518-MEL = system: LB2518-MEL
LOXIMVI = system: LOXIMVI
MEL-HO = system: MEL-HO

Cc1cc(Nc2cc(N3CCN(C)CC3)nc(/C=C/c3ccccc3)n2)n[nH]1 + CC1(C)NC(=O)N(c2ccc([N+](=O)[O-])c(C(F)(F)F)c2)C1=O [nilutamide] (first compound 0.04 µM, partner dose 1 µM)
cleaved PARP positive nuclei fraction (501Mel): 107% | cleaved PARP positive nuclei fraction (A101D): 151% | cleaved PARP positive nuclei fraction (A2058): 102% | cleaved PARP positive nuclei fraction (A375): 33.6% | cleaved PARP positive nuclei fraction (C32): 130% | cleaved PARP positive nuclei fraction (CBRC008): 70% | cleaved PARP positive nuclei fraction (CBRC013): 162% | cleaved PARP positive nuclei fraction (CBRC014): 83.9% | cleaved PARP positive nuclei fraction (CBRC016): 51.6% | cleaved PARP positive nuclei fraction (CBRC017): 83.5% | cleaved PARP positive nuclei fraction (COLO792): 124% | cleaved PARP positive nuclei fraction (COLO800): 178% | cleaved PARP positive nuclei fraction (COLO829): 82% | cleaved PARP positive nuclei fraction (G361): 111% | cleaved PARP positive nuclei fraction (IPC-298): 62.1% | cleaved PARP positive nuclei fraction (IST-MEL1): 125% | cleaved PARP positive nuclei fraction (LB2518-MEL): 128% | cleaved PARP positive nuclei fraction (LOXIMVI): 40.1% | cleaved PARP positive nuclei fraction (MEL-HO): 169%

Nc1ncn([C@H]2C[C@H](O)[C@@H](CO)O2)c(=O)n1 [decitabine] + CC1(C)NC(=O)N(c2ccc([N+](=O)[O-])c(C(F)(F)F)c2)C1=O [nilutamide] (first compound 0.1 µM, partner dose 1 µM)
cleaved PARP positive nuclei fraction (501Mel): 81.8% | cleaved PARP positive nuclei fraction (A101D): 46.6% | cleaved PARP positive nuclei fraction (A2058): 111% | cleaved PARP positive nuclei fraction (A375): 22.2% | cleaved PARP positive nuclei fraction (C32): 94.2% | cleaved PARP positive nuclei fraction (CBRC008): 63.9% | cleaved PARP positive nuclei fraction (CBRC013): 112% | cleaved PARP positive nuclei fraction (CBRC014): 88.5% | cleaved PARP positive nuclei fraction (CBRC016): 161% | cleaved PARP positive nuclei fraction (CBRC017): 55.9% | cleaved PARP positive nuclei fraction (COLO792): 136% | cleaved PARP positive nuclei fraction (COLO800): 126% | cleaved PARP positive nuclei fraction (COLO829): 240% | cleaved PARP positive nuclei fraction (G361): 111% | cleaved PARP positive nuclei fraction (IPC-298): 106% | cleaved PARP positive nuclei fraction (IST-MEL1): 110% | cleaved PARP positive nuclei fraction (LB2518-MEL): 99.5% | cleaved PARP positive nuclei fraction (LOXIMVI): 40.3% | cleaved PARP positive nuclei fraction (MEL-HO): 74.4%

CC(C)C[C@H](NC(=O)[C@H](Cc1ccccc1)NC(=O)c1cnccn1)B(O)O [Bortezomib] + NCC(=O)Nc1ccc(-n2nc(C(F)(F)F)cc2-c2ccc3c(ccc4ccccc43)c2)cc1 [OSU03012] (first compound 0.001 µM, partner dose 1 µM)
cleaved PARP positive nuclei fraction (501Mel): 642% | cleaved PARP positive nuclei fraction (A101D): 253% | cleaved PARP positive nuclei fraction (A2058): 31.3% | cleaved PARP positive nuclei fraction (A375): 2520% | cleaved PARP positive nuclei fraction (C32): 149% | cleaved PARP positive nuclei fraction (CBRC008): 700% | cleaved PARP positive nuclei fraction (CBRC013): 179% | cleaved PARP positive nuclei fraction (CBRC014): 145% | cleaved PARP positive nuclei fraction (CBRC016): 148% | cleaved PARP positive nuclei fraction (CBRC017): 183% | cleaved PARP positive nuclei fraction (COLO792): 162% | cleaved PARP positive nuclei fraction (COLO800): 99.4% | cleaved PARP positive nuclei fraction (COLO829): 102% | cleaved PARP positive nuclei fraction (G361): 810% | cleaved PARP positive nuclei fraction (IPC-298): 119% | cleaved PARP positive nuclei fraction (IST-MEL1): 126% | cleaved PARP positive nuclei fraction (LB2518-MEL): 126% | cleaved PARP positive nuclei fraction (LOXIMVI): 167% | cleaved PARP positive nuclei fraction (MEL-HO): 105%

CC(C)C[C@H](NC(=O)[C@H](Cc1ccccc1)NC(=O)c1cnccn1)B(O)O [Bortezomib] + CN(C)S(=O)(=O)c1ccc2c(c1)/C(=C/c1cc3c([nH]1)CCCC3)C(=O)N2 [SU6656] (first compound 0.001 µM, partner dose 0.4 µM)
cleaved PARP positive nuclei fraction (501Mel): 169% | cleaved PARP positive nuclei fraction (A101D): 229% | cleaved PARP positive nuclei fraction (A2058): 115% | cleaved PARP positive nuclei fraction (A375): 31.5% | cleaved PARP positive nuclei fraction (C32): 148% | cleaved PARP positive nuclei fraction (CBRC008): 535% | cleaved PARP positive nuclei fraction (CBRC013): 97.7% | cleaved PARP positive nuclei fraction (CBRC014): 157% | cleaved PARP positive nuclei fraction (CBRC016): 366% | cleaved PARP positive nuclei fraction (CBRC017): 226% | cleaved PARP positive nuclei fraction (COLO792): 48.2% | cleaved PARP positive nuclei fraction (COLO800): 105% | cleaved PARP positive nuclei fraction (COLO829): 220% | cleaved PARP positive nuclei fraction (G361): 2620% | cleaved PARP positive nuclei fraction (IPC-298): 53.2% | cleaved PARP positive nuclei fraction (IST-MEL1): 163% | cleaved PARP positive nuclei fraction (LB2518-MEL): 94.3% | cleaved PARP positive nuclei fraction (LOXIMVI): 108% | cleaved PARP positive nuclei fraction (MEL-HO): 63.3%

O=C(O)c1ccc2c(c1)nc(Nc1cccc(Cl)c1)c1ccncc12 + NCC(=O)Nc1ccc(-n2nc(C(F)(F)F)cc2-c2ccc3c(ccc4ccccc43)c2)cc1 [OSU03012] (first compound 0.4 µM, partner dose 1 µM)
cleaved PARP positive nuclei fraction (501Mel): 150% | cleaved PARP positive nuclei fraction (A101D): 200% | cleaved PARP positive nuclei fraction (A2058): 197% | cleaved PARP positive nuclei fraction (A375): 3990% | cleaved PARP positive nuclei fraction (C32): 194% | cleaved PARP positive nuclei fraction (CBRC008): 107% | cleaved PARP positive nuclei fraction (CBRC013): 162% | cleaved PARP positive nuclei fraction (CBRC014): 141% | cleaved PARP positive nuclei fraction (CBRC016): 99.2% | cleaved PARP positive nuclei fraction (CBRC017): 168% | cleaved PARP positive nuclei fraction (COLO792): 183% | cleaved PARP positive nuclei fraction (COLO800): 35.6% | cleaved PARP positive nuclei fraction (COLO829): 97.8% | cleaved PARP positive nuclei fraction (G361): 101% | cleaved PARP positive nuclei fraction (IPC-298): 26.7% | cleaved PARP positive nuclei fraction (IST-MEL1): 135% | cleaved PARP positive nuclei fraction (LB2518-MEL): 73.6% | cleaved PARP positive nuclei fraction (LOXIMVI): 128% | cleaved PARP positive nuclei fraction (MEL-HO): 92.1%

O=C(O)c1ccc2c(c1)nc(Nc1cccc(Cl)c1)c1ccncc12 + Cc1cc(N2CCOCC2)cc2[nH]c(-c3c(NC[C@@H](O)c4cccc(Cl)c4)cc[nH]c3=O)nc12 [BMS536924] (first compound 0.4 µM, partner dose 0.2 µM)
cleaved PARP positive nuclei fraction (501Mel): 93.7% | cleaved PARP positive nuclei fraction (A101D): 386% | cleaved PARP positive nuclei fraction (A2058): 179% | cleaved PARP positive nuclei fraction (A375): 235% | cleaved PARP positive nuclei fraction (C32): 271% | cleaved PARP positive nuclei fraction (CBRC008): 281% | cleaved PARP positive nuclei fraction (CBRC013): 102% | cleaved PARP positive nuclei fraction (CBRC014): 138% | cleaved PARP positive nuclei fraction (CBRC016): 156% | cleaved PARP positive nuclei fraction (CBRC017): 157% | cleaved PARP positive nuclei fraction (COLO792): 135% | cleaved PARP positive nuclei fraction (COLO800): 95.3% | cleaved PARP positive nuclei fraction (COLO829): 103% | cleaved PARP positive nuclei fraction (G361): 92.8% | cleaved PARP positive nuclei fraction (IPC-298): 98.1% | cleaved PARP positive nuclei fraction (IST-MEL1): 59.8% | cleaved PARP positive nuclei fraction (LB2518-MEL): 109% | cleaved PARP positive nuclei fraction (LOXIMVI): 133% | cleaved PARP positive nuclei fraction (MEL-HO): 67.5%

CN1CCN(c2ccc3nc(-c4c(N)c5c(F)cccc5[nH]c4=O)[nH]c3c2)CC1 [Dovitinib] + C=CCn1c(=O)c2cnc(Nc3ccc(N4CCN(C)CC4)cc3)nc2n1-c1cccc(C(C)(C)O)n1 [MK1775] (first compound 0.1 µM, partner dose 0.02 µM)
cleaved PARP positive nuclei fraction (501Mel): 101% | cleaved PARP positive nuclei fraction (A101D): 58.6% | cleaved PARP positive nuclei fraction (A2058): 41.6% | cleaved PARP positive nuclei fraction (A375): 264% | cleaved PARP positive nuclei fraction (C32): 48.6% | cleaved PARP positive nuclei fraction (CBRC008): 110% | cleaved PARP positive nuclei fraction (CBRC013): 123% | cleaved PARP positive nuclei fraction (CBRC014): 115% | cleaved PARP positive nuclei fraction (CBRC016): 156% | cleaved PARP positive nuclei fraction (CBRC017): 103% | cleaved PARP positive nuclei fraction (COLO792): 95.7% | cleaved PARP positive nuclei fraction (COLO800): 69.3% | cleaved PARP positive nuclei fraction (COLO829): 203% | cleaved PARP positive nuclei fraction (G361): 48.7% | cleaved PARP positive nuclei fraction (IPC-298): 47.3% | cleaved PARP positive nuclei fraction (IST-MEL1): 48.8% | cleaved PARP positive nuclei fraction (LB2518-MEL): 65.4% | cleaved PARP positive nuclei fraction (LOXIMVI): 124% | cleaved PARP positive nuclei fraction (MEL-HO): 149%

Nc1ccn([C@@H]2O[C@H](CO)[C@@H](O)C2(F)F)c(=O)n1 [gemcitabine] + Cc1ccc(NC(=O)c2cccc(N(C)C)c2)cc1NC(=O)c1ccc(O)cc1 [ZM336372] (first compound 0.0004 µM, partner dose 2 µM)
cleaved PARP positive nuclei fraction (501Mel): 308% | cleaved PARP positive nuclei fraction (A101D): 155% | cleaved PARP positive nuclei fraction (A2058): 197% | cleaved PARP positive nuclei fraction (A375): 130% | cleaved PARP positive nuclei fraction (C32): 133% | cleaved PARP positive nuclei fraction (CBRC008): 50.4% | cleaved PARP positive nuclei fraction (CBRC013): 94% | cleaved PARP positive nuclei fraction (CBRC014): 136% | cleaved PARP positive nuclei fraction (CBRC016): 221% | cleaved PARP positive nuclei fraction (CBRC017): 133% | cleaved PARP positive nuclei fraction (COLO792): 146% | cleaved PARP positive nuclei fraction (COLO800): 190% | cleaved PARP positive nuclei fraction (COLO829): 31.3% | cleaved PARP positive nuclei fraction (G361): 107% | cleaved PARP positive nuclei fraction (IPC-298): 62.4% | cleaved PARP positive nuclei fraction (IST-MEL1): 180% | cleaved PARP positive nuclei fraction (LB2518-MEL): 47.3% | cleaved PARP positive nuclei fraction (LOXIMVI): 69.6% | cleaved PARP positive nuclei fraction (MEL-HO): 169%
